Among the data in article PMC7819943, “Rice protein-binding microarrays: a tool to detect cis-acting elements near promoter regions in rice” are binding signal values, retold here.

By UniProt entry, the sequences of proteins in these tests, tags left out.
UniProt Q0JBA9, entry or part of it: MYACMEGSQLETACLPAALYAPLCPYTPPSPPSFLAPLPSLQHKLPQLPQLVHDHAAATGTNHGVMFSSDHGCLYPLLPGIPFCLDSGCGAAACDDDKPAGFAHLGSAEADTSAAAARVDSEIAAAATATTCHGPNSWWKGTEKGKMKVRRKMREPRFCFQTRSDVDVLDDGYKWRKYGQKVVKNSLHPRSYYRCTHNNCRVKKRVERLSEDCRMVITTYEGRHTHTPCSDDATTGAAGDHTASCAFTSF

This is one part of the list.

This test concerns the target OsWRKY34 (Oryza sativa, UniProt Q0JBA9 1-250). Description: protein-binding microarray (RPBM); PBS, 2% BSA, 51.3 ng/ul salmon testes DNA, 50 uM zinc acetate, 200 nM TF, 25 C, 1 h; high values mean tight binding. The conditions noted are these: protein: recombinant; tags: N-terminal polyhistidine and DsRed monomer fusion (pET32a); label: CyDye5-dUTP incorporated in the synthesized complementary strand; 3' TTTTT single-stranded linker to array surface; dsDNA, one strand shown. The method, boiled down:
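The binding signal for each feature is its fluorescence intensity in arbitrary units. An Axon 4000B scanner was used to read a custom Agilent array that had been made double-stranded with Cy5-dUTP primer extension, blocked with 2% BSA, incubated at 25 °C for 1 h with 200 nM protein in PBS, 2% BSA, salmon testes DNA and 50 µM zinc acetate, and washed. The protein was an N-terminal polyhistidine–DsRed transcription factor fusion from E. coli BL21-CodonPlus, purified on Ni–NTA.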
“CTCCATCCTCATCACGCATCTTCTTGCCATCCCGTCGCTCCGGAGTCACCTAGTGCAG”: the binding signal is 8660 fluorescence intensity (a.u.).

In the case of “TTTTGTCTCTTTCTGCTGCTGGAGTAGTATTGTTCATTTACGGAGTCACCTAGTGCAG”, the binding signal was 9050 fluorescence intensity (a.u.).

For the sequence “ACCGTAACTGATAACTCTTCGTCCCATTTTAAATACAGCCCGGAGTCACCTAGTGCAG”, the binding signal is 9070 fluorescence intensity (a.u.).

Take “AAGGCTGATCAATTTTTATCACCTTCGTTTTGTAATATACCGGAGTCACCTAGTGCAG”: the binding signal is 8440 fluorescence intensity (a.u.).

On to “TTTACCTTTTACGTGTAGGATCCACTTTTACCTTCCATTCCGGAGTCACCTAGTGCAG”, for which the binding signal was 8280 fluorescence intensity (a.u.).

For “CTTCCTCGATCTGTTCTAGAGTTGTCCTCCAGCTGAGTTCCGGAGTCACCTAGTGCAG”, the binding signal is 9140 fluorescence intensity (a.u.).

Regarding “TTCTTCGCTTGTCTCCAAGCTGTGTACTCTACTCCTCTGACGGAGTCACCTAGTGCAG”, the binding signal was 10000 fluorescence intensity (a.u.).

Regarding “CCCGTCTCCTATAAGAGCCCATCTACACCGCCACCCACCCCGGAGTCACCTAGTGCAG”, the binding signal was 9400 fluorescence intensity (a.u.).

For “TCGTATATTCCACCTAATTCTGCAGTACTCTTTCTTGCCCCGGAGTCACCTAGTGCAG”, the binding signal is 9380 fluorescence intensity (a.u.).

For “AATATCTATAATTCTGTGAGATTTACTTTTTTTCCTTTCTCGGAGTCACCTAGTGCAG”, the binding signal is 8800 fluorescence intensity (a.u.).

As for “TCGTGTACTTTGCACTTGCCAATTCCATTCCATTATTATACGGAGTCACCTAGTGCAG”, the binding signal was 8430 fluorescence intensity (a.u.).

Regarding “GCCGCTCTCTGTCTCTGTCTCGGTCTCGGTCTCCGCCTCCCGGAGTCACCTAGTGCAG”, the binding signal was 10400 fluorescence intensity (a.u.).

As for “ATGCATACGTGTGTCCCGTCTCTGCCTGCTGCTCTGTTCGCGGAGTCACCTAGTGCAG”, the binding signal is 11900 fluorescence intensity (a.u.).

For “AGACCCACAGTAATTAACCAGCGTAACCACCTTTCTTCCACGGAGTCACCTAGTGCAG”, the binding signal was 8350 fluorescence intensity (a.u.).

As to “TAGCCATACTCTCTCTCTCTCTTCTCCACTCCTCTGATCGCGGAGTCACCTAGTGCAG”, the binding signal is 10200 fluorescence intensity (a.u.).

As to “CGTGTTCGACATGTTACGCATATTTGATCTGTTCATGTTTCGGAGTCACCTAGTGCAG”, the binding signal was 9890 fluorescence intensity (a.u.).

For “GCAAACTTTATTGCTCCGCGTTCTTCCTTTCTCTGTGTTTCGGAGTCACCTAGTGCAG”, the binding signal is 8910 fluorescence intensity (a.u.).

Regarding “ATATGTTTAAAAAAGTCAACGGCGTCAAACATTTAGGGATCGGAGTCACCTAGTGCAG”, the binding signal was 18600 fluorescence intensity (a.u.).

Turning to “ACCCCTATAAATACCCACCATCTGCCGCGCCATCCCATCGCGGAGTCACCTAGTGCAG”, the binding signal was 9180 fluorescence intensity (a.u.).

Take “CTCGTCTTCCCCACCCCTCGCCTCCTCGCGCGCTCGGTGACGGAGTCACCTAGTGCAG”: the binding signal is 8100 fluorescence intensity (a.u.).

For “CACCAATAGCTCGTTGTCGCTCACCGTCTCAGGTGAAGCTCGGAGTCACCTAGTGCAG”, the binding signal is 8490 fluorescence intensity (a.u.).

Turning to “ATCGATCACCACGCCCACCTTCATCTCCTCCACGATGAACCGGAGTCACCTAGTGCAG”, the binding signal is 9740 fluorescence intensity (a.u.).

In the case of “AGCGTCGTAGACTTTTTGCTGGTAGCGCCTTGCCATTCACCGGAGTCACCTAGTGCAG”, the binding signal was 8430 fluorescence intensity (a.u.).

As for “TATACTAGTGTACTGCACTGCATGCCACTCATACTCACTACGGAGTCACCTAGTGCAG”, the binding signal is 10400 fluorescence intensity (a.u.).

On to “TCGCTCTCATCCCCAAACTCGCAACCACCGCCCGCTCTCACGGAGTCACCTAGTGCAG”, for which the binding signal is 8080 fluorescence intensity (a.u.).

On to “TTGGCTCTAATATCACTGGTCTACTATTGCGTTGTTTTATCGGAGTCACCTAGTGCAG”, for which the binding signal is 8300 fluorescence intensity (a.u.).

For the sequence “AAAAAGTCAACAGCGTTGAATTTTTAGAAACGGAGGAAGTCGGAGTCACCTAGTGCAG”, the binding signal was 8280 fluorescence intensity (a.u.).

Regarding “TCTCTCTCGCTCGCTCACGCAGTCTCTCACCACGACTCTCCGGAGTCACCTAGTGCAG”, the binding signal is 11400 fluorescence intensity (a.u.).

“ACATTAACTAACCGACTATAACTGATCACTGTATTAATTACGGAGTCACCTAGTGCAG”: the binding signal was 8180 fluorescence intensity (a.u.).

As for “AAAAGTACACACTGCTTTGACTCAGGTCAAACTTGGACTTCGGAGTCACCTAGTGCAG”, the binding signal is 8060 fluorescence intensity (a.u.).

On to “GCAACCACCGCCGCCTCGCCGCAGCATCACCCGCAGCCGCCGGAGTCACCTAGTGCAG”, for which the binding signal was 8220 fluorescence intensity (a.u.).

For “GTGGGTGGGTTTGGAGTTTGGACTGTTTAGGGCCTTTTGACGGAGTCACCTAGTGCAG”, the binding signal was 23300 fluorescence intensity (a.u.).

For “ACTGTCGTGCCACAGTGGACGTGTGCGGCAGGTGAAGCACCGGAGTCACCTAGTGCAG”, the binding signal is 49100 fluorescence intensity (a.u.).

In the case of “ACTTCACTCGCACCGTGTCCGTGTGTTGCGTGTGTATATACGGAGTCACCTAGTGCAG”, the binding signal is 8100 fluorescence intensity (a.u.).

Take “TCACTGGTTTGCTGGAGGTACAACTTGAAGCAGCACATTTCGGAGTCACCTAGTGCAG”: the binding signal is 8140 fluorescence intensity (a.u.).

Consider “CACTTTTCCTGTCTTTCATGTCGTCCTATATAAAGGCACACGGAGTCACCTAGTGCAG”, for which the binding signal is 9810 fluorescence intensity (a.u.).

As for “CTTTGCTTTTGTTTACGGTTCACGCCACGGCGCGAGTTTCCGGAGTCACCTAGTGCAG”, the binding signal was 8420 fluorescence intensity (a.u.).

On to “TAAGTAAAATTCATACTCTCTCTATCTTGGAACATGTCTACGGAGTCACCTAGTGCAG”, for which the binding signal is 8530 fluorescence intensity (a.u.).

As to “CCACTTGTTTTTTTGTTTTGTTTGTGTAACCGATATGTGGCGGAGTCACCTAGTGCAG”, the binding signal was 8840 fluorescence intensity (a.u.).

Consider “CCCCTGCTTCCGTGTGCTGCTGGTCTTGCTTCGCTTCGATCGGAGTCACCTAGTGCAG”, for which the binding signal is 8650 fluorescence intensity (a.u.).

With “AGGGTTTGTCTTTTTTTTTTTGGACGGAGGGAGTAGGCCACGGAGTCACCTAGTGCAG”, the binding signal was 8520 fluorescence intensity (a.u.).

Regarding “CTCTCCGCGTCACTTCTCTTCCACCTCTTGTAGTAGCTGCCGGAGTCACCTAGTGCAG”, the binding signal was 9890 fluorescence intensity (a.u.).
